AC50 data for 37 compounds are collected here from PubChem BioAssay AID1487 (National Center for Advancing Translational Sciences (NCATS), 2009).

This is one part of the list. Shown are side measurements of this screen, not its main read-out; they come without a call. Most of these compounds were active or inconclusive in the main read-out, so they are no random draw. The note in brackets gives the kind of curve behind each potency; many fits are weak.

The assay is described as follows: qHTS Assay for Modulators of Lamin A Splicing. The conditions noted are these: HeLa LMNA splicing GFP/RFP minigene ratio, 48 h. In a few lines:
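Read-out is the ratio of GFP to DsRed2 object intensity, acquired by 488 nm laser-scanning cytometry on HeLa lamin A-EGFP minigene reporter cells. Compound incubation 48 hrs at 37 °C in Opti-MEM with 2% FBS; DMSO 0.5% final.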

[1] abbreviates: measured here: RFP viability control channel.
[2] abbreviates: measured here: GFP splicing reporter channel.

What is called AC50 is the concentration at which the activity in the assay is half-maximal.

As to `COc1ccc(NC(=O)C2CCCN(S(=O)(=O)c3ccc(C)cc3)C2)cc1OC` (stereo not drawn), under setting [1], the AC50 is 20 µM [rising, single point].

As to `CCn1cc(C(=O)O)c(=O)c2cc(F)c(N/N=C/c3ccccc3[N+](=O)[O-])cc21`, the half-maximal activity concentration (AC50) under setting [1] was 6.31 µM [rising, partial curve, poor fit].

`Cc1ccccc1-n1sc2cc(F)ccc2c1=O`: the AC50 is 35.5 µM [falling, single point] under setting [2] and 35.5 µM [falling, partial curve] under setting [1].

For `CCn1c(C)c(C2=CCN(S(=O)(=O)c3ccc(C)cc3)CC2)c2ccccc21`, the AC50 under setting [1] is 20 µM [rising, partial curve].

As to `O=C(Nc1nc(-c2ccc(Cl)s2)cs1)c1cccs1`, the AC50 is 12.6 µM [rising, single point] under setting [2] and 25.1 µM [rising, single point] under setting [1].

As for `Cc1ccc(SCc2nc(N)nc(Nc3ccccc3C)n2)c(C)c1`, the AC50 under setting [2] was 7.94 µM [rising, partial curve] and the AC50 under setting [1] was 12.6 µM [rising, partial curve].

With `CC(=O)c1cc(-c2ccc(F)cc2)n(CC(=O)NC2CCCCCC2)c1C`, under setting [1], the AC50 is 10 µM [falling, partial curve].

Consider `COC(=O)C1=C(C)OC(N)=C(C#N)C1c1c(C)nn(C)c1C` (stereo not drawn), for which the AC50 under setting [1] is 0.0891 µM [falling, full curve].

For `O=C(Nc1nc2c(s1)COc1ccccc1-2)c1cccs1`, the AC50 is, setting by setting: under setting [2], 15.8 µM [rising, partial curve, poor fit]; under setting [1], 14.1 µM [rising, single point].

On to `COc1ccc(/C=N/N2CCOCC2)cc1OCc1ccccc1`, for which the AC50 was 0.0708 µM [falling, full curve, poor fit] under setting [2] and 0.158 µM [falling, partial curve, poor fit] under setting [1].

As for `CCn1c(SCC(=O)N/N=C/c2cc(OC)c(O)c(OC)c2)nc2ccccc21`, under setting [1], the AC50 was 2.82 µM [falling, partial curve, poor fit].

As for `Cc1c(C(=O)OC(C)C)sc(N)c1C(=O)OC(C)C`, the AC50 under setting [1] is 31.6 µM [rising, single point].

On to `Cc1cc(Nc2ccc(C)c(C)c2)n2nc(C)nc2n1`, for which the AC50 runs as follows: under setting [2], 5.62 µM [falling, partial curve, poor fit]; under setting [1], 5.62 µM [falling, partial curve, poor fit].

With `CCOc1ccc(C2=Nc3ccc(Br)cc3C(c3ccc(N4CCOCC4)cc3)=NN2)cc1`, the AC50 under setting [1] was 1.78 µM [rising, full curve].

`Cn1c(=O)c(=O)n(C)c2cc(S(=O)(=O)NCc3ccc(Cl)cc3)ccc21`: the AC50 under setting [2] is 0.0141 µM [rising, full curve, poor fit].

Consider `O=C(Nc1nc(-c2ccccc2)cs1)C1CCCN(S(=O)(=O)c2cccc([N+](=O)[O-])c2)C1` (stereo not drawn), for which the AC50 under setting [1] was 11.2 µM [rising, single point].

Turning to `N=C(N)SCc1nc2ccccn2c1Br`, the AC50 under setting [2] is 31.6 µM [rising, single point].

`CCOC(=O)N1CCN(C(=O)c2ccc3c(=O)n(Cc4ccc(OC)cc4)c(=S)[nH]c3c2)CC1`: the AC50 under setting [1] was 15.8 µM [rising, partial curve].

Consider `Cc1ccc2[nH]c(O)c(N=NC(=O)C(C)n3cnc4ccccc4c3=O)c2c1` (stereo not drawn), for which, under setting [1], the AC50 is 17.8 µM [rising, single point].

On to `CCC(C)NC(=O)C1CCN(S(=O)(=O)c2ccc(OC)cc2)CC1` (stereo not drawn), for which, under setting [2], the AC50 is 5.01 µM [rising, single point].

For the compound `CCOC(=O)c1c(C)[nH]c(C(=O)COC(=O)CNC(=O)c2ccccc2Cl)c1C`, under setting [2], the AC50 was 11.2 µM [falling, partial curve].

`O=C(CN1CCCN(Cc2ccc(F)cc2Cl)C1=O)NC1CCCCCC1`: the concentration at half-maximal activity (AC50) reads like this: under setting [2], 11.2 µM [rising, partial curve, poor fit]; under setting [1], 15.8 µM [rising, single point].

Consider `CCCNC(=S)N1CCC(C(=O)c2ccc(OC)cc2)CC1`, for which, under setting [1], the AC50 was 11.2 µM [rising, partial curve].

For `O=S(=O)(NCc1ccccc1)c1ccc(Cl)c(S(=O)(=O)NCc2ccccc2)c1`, the AC50 under setting [1] was 20 µM [rising, single point].

Take `CCOc1ccc(N2C(=O)CC(Sc3nc(C)cc(C)n3)C2=O)cc1` (stereo not drawn): the AC50 under setting [2] is 35.5 µM [falling, single point].

In the case of `CCc1nn2cc(C(=O)c3cc(Cl)ccc3O)cnc2c1-c1ccc(F)cc1`, the concentration at half-maximal activity (AC50) under setting [1] is 22.4 µM [rising, single point].

Turning to `Cc1ccc(S(=O)(=O)Cn2nnnc2C(c2ccc(F)cc2)N2CCCCC2)cc1` (stereo not drawn), the AC50 was 17.8 µM [rising, partial curve, poor fit] under setting [2] and 15.8 µM [rising, single point] under setting [1].

With `CCCNC(=S)N1CCC(C(=O)c2ccc3c(c2)OCCO3)CC1`, the AC50 under setting [2] was 7.94 µM [rising, partial curve].

With `Oc1ccc(-c2nc3ccccc3s2)cc1`, the AC50 under setting [1] was 0.0447 µM [falling, partial curve, poor fit].

As to `O=c1c2ccccc2nc(-c2ccco2)n1-c1nc2ccccc2s1`, the AC50 under setting [1] was 15.8 µM [rising, partial curve].

In the case of `COCCN(CCOC)Cc1c(C)[nH]c2ccccc2c1=O`, the AC50 under setting [2] is 22.4 µM [rising, single point].

With `Clc1ccc2c(NCc3ccco3)ncnc2c1`, the AC50 was 10 µM [rising, partial curve] under setting [2] and 12.6 µM [rising, partial curve] under setting [1].

Turning to `Cn1nc(C(F)(F)F)c(-c2ccccc2)c1NC(=O)c1ccco1`, the AC50 under setting [2] is 0.0251 µM [rising, full curve, poor fit].

With `O=C(Nc1nccs1)C1CCN(S(=O)(=O)c2c(Cl)cccc2Cl)CC1`, the AC50 under setting [1] is 14.1 µM [rising, single point].

Turning to `O=C(NCc1ccc(Cl)cc1Cl)C1CCN(S(=O)(=O)c2ccc3c(c2)OCCCO3)CC1`, under setting [1], the AC50 was 31.6 µM [rising, single point].

For the compound `Cc1ccccc1-n1nnnc1Sc1nnnn1-c1ccccc1`, the AC50 is, setting by setting: under setting [2], 7.08 µM [falling, single point]; under setting [1], 31.6 µM [falling, single point].

As to `Nc1[nH]c(=O)ncc1F`, the AC50 runs as follows: under setting [2], 0.000794 µM [falling, full curve, poor fit]; under setting [1], 0.000794 µM [falling, full curve, poor fit].
